The target of the test is CCN2/Connective Tissue Growth Factor, HA-tagged (CCN2-HA) (UniProt P29268). The test is described as follows: co-IP; lysates of M-CCN2 cells (MOVAS with lentiviral CCN-HA), non-crosslinked or DSP-crosslinked, Triton X-soluble and -insoluble fractions; immunoprecipitated with anti-HA antibody; blots probed with anti-CCN2 and anti-PDGFB.

Protein sequences, listed by entry. Tags and fused reporters are not part of them. Lines headed by an entry give the natural chain unless they say otherwise; changes in a name come on top. Residues count along the entry.
UniProt P29268, residues 26-348: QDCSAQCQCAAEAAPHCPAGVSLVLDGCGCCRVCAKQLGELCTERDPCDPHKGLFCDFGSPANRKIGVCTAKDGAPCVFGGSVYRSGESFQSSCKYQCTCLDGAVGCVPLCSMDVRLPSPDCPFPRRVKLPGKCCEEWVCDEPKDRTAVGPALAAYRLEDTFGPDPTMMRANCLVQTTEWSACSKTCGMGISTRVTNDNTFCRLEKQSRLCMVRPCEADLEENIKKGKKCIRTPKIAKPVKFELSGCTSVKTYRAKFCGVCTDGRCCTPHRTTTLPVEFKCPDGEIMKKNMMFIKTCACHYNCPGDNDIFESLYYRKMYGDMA
UniProt P31240: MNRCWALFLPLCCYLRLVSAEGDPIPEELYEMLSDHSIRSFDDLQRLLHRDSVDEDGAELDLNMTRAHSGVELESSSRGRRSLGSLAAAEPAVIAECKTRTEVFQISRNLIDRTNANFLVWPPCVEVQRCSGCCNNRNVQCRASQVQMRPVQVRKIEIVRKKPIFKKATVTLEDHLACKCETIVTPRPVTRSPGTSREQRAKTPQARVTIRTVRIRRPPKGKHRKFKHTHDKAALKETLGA

Results are given in words; binding and its absence hold for the method and conditions named. In cells and extracts the contact can be indirect.

As to “platelet-derived growth factor-B (PDGF-B) (from UniProt P31240) (ligand)”, the binding entry was “no binding”.
